For 107 sequences, z-score results are on record in PubChem BioAssay AID1508600 (Functional Genomics Laboratory (NCATS/FGL), 2020).

Out of some 53,000 sequences screened, about 3,700 (7%) were called active.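 How the source made its calls: active means gene knockdowns whose robust z-score for IL-1 alpha signal is at least 2 or at most -2, so actives lie on both sides; inactive means the rest.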 The list shows a part of the results.

The experiment can be described thus: Components of the Cytosolic LPS Sensing Pathway: Gene Identification via Genome-wide siRNA Screen.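 Further: robust z of the log signal after scaling to non-targeting control siRNA wells of the plate.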 Particulars: RAW264.7 macrophages, IL-1a HTRF, actives lie on both sides, screened at 100 nM (by protocol), cells primed 5 h with Pam3CSK4 first. The method in brief: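 Using IL-1a HTRF as read-out, the screen measured release from RAW264.7 cells after 48h siRNA knockdown (100 nM), 5 h Pam3CSK4 priming and 24 h cytosolic LipidA. Values were expressed relative to negative-control wells as robust z-scores.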
As for GGAACAGAUACAGAAAUCCTT against Cstf2, the z-score is inactive: -0.0131. Under GCCUUCCGCUACCUUCUUATT against Ccl19 stands inactive: 0.198. Consider CCUUCUAAUCUUUUUGCCUTT against Polr3k, for which the z-score is inactive: 1.86. Turning to GGGAUGGACAUCUUGUUUUTT against Eif4a1, the z-score is inactive: -0.0565. With GCUCAUUCUCAAAGGCUUATT against Rdh12, the z-score was inactive: 0.659. Under CGGUAUAGUAGAUACUUAATT against Picalm stands active: 2.01. Take GGAGGAGGAAAAGACUUUUTT against Pdzd3: the z-score is inactive: -0.0553. Under AGCAGGAGUUCGAACAUGGTT against Hoxb4 stands inactive: 1.09. As for CCAUGAGGCGUAUCAUUUUTT against Phlda3, the z-score was inactive: 1.27. Under GGUUUGCUGAGAAAUUAACTT against Btg3 stands inactive: 0.958; under CCACGACGUACAUCCAUAATT against Tmem181a, inactive: -1.02; under GCUUACCGAUGGGAUGACGTT against Omd, inactive: -0.809. Under GGAAGAUUUCACAUCUCAGTT against Pdia5 stands inactive: -0.528; under CCACGAAGAGCAAGAAAACTT against Gm5941, inactive: -1.15.

As to CACAGAACAUCAUCUCCCATT against Olfr887, the z-score is active: -2.79. Under GCAGCAAUCAGAUCAUGUATT against Platr26 stands inactive: -0.694; under GGGACAUUUUCAGUUUUCUTT against Brk1, inactive: 0.776; under GGAGUUGUCUUCAAGAAAUTT against Rassf4, inactive: 0.305. Under GGAGAUGAAUCACUAACCATT against Fgf5 stands inactive: -0.256; under CGUGGAAAUGUCUUAAAUCTT against Folh1, inactive: 0.412; under AAACUAGGGUCGAUUUCACTT against Hmgn3, inactive: 0.704. Under GCCUUUGAUAAAAGUCCGGTT against Saxo2 stands inactive: -0.93; under GCAGGAGUAUUGCCAAGGATT against Csf1, inactive: -0.404. On to CCCUCUAUCCCUCUGUAAGTT against Spsb2, for which the z-score is inactive: -0.377.

As for CCAGCUGUUCGCAAAAAAATT against Zranb2, the z-score was inactive: 0.557. Under GCACCUUUGCUUCAGGUAGTT against Ttf2 stands inactive: -0.837. On to GGUAGGAGCUCUGAACACUTT against Josd1, for which the z-score is inactive: 0.128. Under CGUGACUCUGCUUUAACUCTT against Col27a1 stands active: -2.27.

Turning to GCUGGAAUGUAACUGUUUCTT against Ceacam18, the z-score is inactive: 0.169. As to GGUGUUAGAUUCUUUGUAATT against Cst6, the z-score is active: 2.04. As for GCCUUAGAAGUUAACAUGUTT against Suco, the z-score is inactive: -0.368.

As for CCAGUAGCACGUGUUAUUUTT against Rbmy, the z-score was inactive: 0.0944. Under GGAACUGAUUGAAAACAUCTT against Syce2 stands active: 2.97; under GGAUGUGCAUCACUUCAACTT against Sgsh, inactive: -1.75; under GGAAAGAUUGUUUGAAGGCTT against Cask, inactive: -0.252. Under GGUGACAAUAAAAUGGUGATT against Fabp1 stands inactive: -0.279; under GGAGACUUAUUGAGCAAGUTT against Usp44, active: 4.42; under GGAGAAGACAUGUUAAUAATT against Aox1, inactive: -0.305. Under GGAUGUUGCGUCACCUACGTT against Zfp423 stands inactive: -0.349; under GGAGAUGGCUUCUCUCUCGTT against Rarg, inactive: 1.22.

GGCCAACACUGAUACCAAATT against Plau: the z-score was inactive: 0.74. Under GCUGAUGGACUCAAGAAAGTT against Zbed5 stands inactive: -0.805; under CGACGAAGCGACCAUUCUUTT against Jchain, inactive: -0.386. GGCUUCAGCCAGAGUUCAGTT against Zfp239: the z-score is inactive: -0.753. Under GGUCUUCAGCAGUCAUCAGTT against Sprr2d stands inactive: 0.391; under GGAUAAGAUAAUGUCUGUGTT against Olfr716, inactive: -1.73. Turning to GCCUGAAGCAAGACAAGAUTT against Dmkn, the z-score is inactive: -0.232. With GGAUCCUCUUCUAUCUUUATT against Pycr1, the z-score was inactive: -1.27. Under GGGUGUUCUAAGUAGUCGCTT against Cdk3 stands inactive: -0.187.

Turning to CCAAGAUUCUCCUGAAUUATT against Plod2, the z-score was inactive: -0.183. For CCAGGAACGCACUUUGUCATT against Tnrc18, the z-score is inactive: -0.73. Under GCCAAAACAUUUCAGAGCCTT against Hemk1 stands inactive: -0.000768; under GGCUUUGAUGCAACUUCUGTT against Slc18a1, inactive: -0.405; under GGAAGCCACGGUCAUGUGUTT against Trim9, inactive: 0.746.

GCUGGUGAGUCACUGAUGATT against Med22: the z-score is inactive: 1.32.

On to GGUAUGGGUGAGAGCAACUTT against Ndufaf5, for which the z-score is inactive: 0.908. Under GGAAUUCUACCGUUAUAUUTT against Trap1 stands inactive: -0.503; under GGUCCAGAAAAUGUUUAUATT against Slc35a4, inactive: -0.599; under GGAUAUGCCUCCCUUGAUGTT against Gstt3, active: -2.4. With GGUUGAAGUGUGUUGCUUUTT against Atp13a1, the z-score was inactive: 0.908.

On to GGUGAUCACAAAUAUGAUGTT against Ubxn2b, for which the z-score was inactive: -0.173. As for CGUUUCCAGAUUGCACCUUTT against Rnaseh2b, the z-score is inactive: 1.48. For the sequence GGAUCUGCUUGCAUUUGCATT against Map3k8, the z-score is inactive: 0.595.

Take GGAAUAUAAUGGUUACACATT against Trf: the z-score is inactive: 0.0776.

For the sequence CCAAGAAAGCAGGAUUAAGTT against Noxo1, the z-score was inactive: 0.41. For the sequence GGAAGAUUUCCUCUCCAAGTT against Dnajc15, the z-score was inactive: 0.239. Under GGACAGUUCAAGAUGUUCCTT against Mthfr stands inactive: -0.348; under CGAAAGAAGGUGAGGGCUCTT against Ppp1r9a, inactive: -0.653. GGUUAGCUUCUUAAAACCATT against Adcy10: the z-score was inactive: -0.605.

With GCACCAAUGGAACAGUGAUTT against Chfr, the z-score is inactive: 0.202.

As for CCCAUAUCCUAGCUCUCUUTT against Olfr1230, the z-score is inactive: -1.49.

As for CGCAGCUUCCACAUUAGUGTT against Rad23a, the z-score is inactive: -0.267. For the sequence GGAAGAAAAAAACUUCGUUTT against Gabrg3, the z-score is inactive: 0.186.

As for CCUGUCUGGACUUGUCUAATT against Ica1, the z-score is active: -2.05. For the sequence GCUCAUUCAACCAAUAUGCTT against Tmprss7, the z-score is inactive: -0.66.

For GGCGCACAAUCAAGAUCUUTT against Col4a4, the z-score is inactive: 0.385.

GUUAUCAUCACCAUGUUGGTT against Atp6v0e: the z-score was inactive: -1.4.

In the case of GGUUGCUCACUCAUUUAACTT against Pa2g4, the z-score was active: 2.18. Under GGGAUUACUUGUAUCGGGATT against Lrrc46 stands inactive: 0.448. Turning to GGGAAUUGCUUUUAAAUGATT against Cnot6l, the z-score is inactive: -0.664. In the case of GGAGUCAUGAAGACCAAUUTT against Tex48, the z-score is inactive: 0.552. On to GGCUUUGAUCAGCUCAGAATT against Klhl9, for which the z-score was inactive: -0.243. Under GCCGUGGUGUGGAUUUUUGTT against Cenpa stands inactive: -1.24.

For GGCUGUGUUUUUGAACCUUTT against Chrna3, the z-score is inactive: -0.323. Under CGGUCCAAUCUUCUACCCUTT against Rnaset2b stands inactive: -0.695. On to GCAAUAUUUCAGCACACUGTT against Txndc16, for which the z-score was inactive: -1.08. Under GGUGUACCUUGGGACUUACTT against Prpf18 stands active: -2.84.

Turning to CACUUAUGACCACGCUGAUTT against Olfr809, the z-score was inactive: 0.113.

With GGAGCAACAGAGAUUUCUUTT against Sergef, the z-score is active: 2.07.

In the case of GGAGACAUGGACUCCUAUATT against Nt5el, the z-score was inactive: 0.201. Under GGUGAGAGGAAGGAAGAGATT against Pcsk7 stands active: 2.54; under GAUUAUCCAUUGCCCGAUGTT against Lce1h, inactive: 0.724; under “GGACUUUUAUCACGAAGAGTT against E230016K23Rik”, inactive: 0.584. In the case of “CGUAGAGAGUCUCCCAUCATT against 4930474N05Rik”, the z-score was inactive: -1.63. Under GCAAAAGAGGGAAUAAUUCTT against Ssb stands inactive: 0.397; under GCAGCUAGCGAUCUUUGGUTT against Thpo, inactive: 0.955; under GGAGGAUGAGAAAGAAGAGTT against Gja8, inactive: -0.176. Consider GGUGUGGUAUCUCUUGUAGTT against Tfdp1, for which the z-score was inactive: 0.0183. Under GCCAGUGAGGCUACUUUCATT against Myo18a stands inactive: 1.88. Take GGAACAAUUUGAUCCAGCATT against Mbnl2: the z-score is inactive: -1.67.

For GGCAAACAUGUGUUCCCUGTT against Prap1, the z-score was inactive: -1.85.

For GCUAGGCUUAUGAUCUUUUTT against Pfkp, the z-score was inactive: -0.525.

Consider GGGUCCAGUAUCCAUCAAATT against Sf3a1, for which the z-score was active: -2.7. “GCUUUCAAAUGAAUCUGGATT against D630023F18Rik”: the z-score is inactive: -0.531. Under GCACCUACACCGCUUACAUTT against Tmem101 stands inactive: -0.499. Under GGCAAUUCUCUGUAUCCACTT against Cyp2d34 stands inactive: -0.358. Under GGCUUCAAGGAGACUGCUUTT against Wnt9a stands inactive: 0.856.
